# Measured values reported in the supplement of paper PMC6411743.
# ± gives the standard deviation of the averaged measurements. Only a part is listed here, and it is no random draw.
# Assays:
# Test in all cases: NP40-soluble protein abundance relative to vehicle (solubility fold change) (ratio); higher = more soluble protein in presence of ATP
# ATXN10 = biological target: T1, ATXN10 (UniProt Q9UBB4)
# T1 sequence (whole entry): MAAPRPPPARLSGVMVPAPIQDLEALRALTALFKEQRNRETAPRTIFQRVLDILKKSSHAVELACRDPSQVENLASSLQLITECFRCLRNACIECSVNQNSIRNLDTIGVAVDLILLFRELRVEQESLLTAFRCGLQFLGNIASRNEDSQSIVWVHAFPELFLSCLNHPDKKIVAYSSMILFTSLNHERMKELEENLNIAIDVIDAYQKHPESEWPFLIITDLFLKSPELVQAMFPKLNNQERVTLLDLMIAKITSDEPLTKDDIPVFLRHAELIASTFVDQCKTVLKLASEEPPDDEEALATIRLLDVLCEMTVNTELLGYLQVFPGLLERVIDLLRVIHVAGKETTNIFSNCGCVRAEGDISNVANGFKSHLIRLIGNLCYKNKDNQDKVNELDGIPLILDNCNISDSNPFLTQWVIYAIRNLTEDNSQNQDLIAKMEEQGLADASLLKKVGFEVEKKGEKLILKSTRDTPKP
# In short: (§1)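 Jurkat crude lysate (Dounce-homogenised) was treated with eight concentrations from 0.1 to 10 mM for 10 min at room temperature, then 3 min at 37 °C. It was solubilised with 0.8% NP40 and benzonase (60 min, 4 °C) and ultracentrifuged, and the supernatant was TMT-labelled for LC-MS/MS. Intensities were vsn-normalised, and the value is the fold change against the NP40-processed vehicle per replicate, from three independent experiments.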
# FAF1 = biological target: T2, FAF1 (UniProt Q9UNN5)
# T2 sequence (whole entry): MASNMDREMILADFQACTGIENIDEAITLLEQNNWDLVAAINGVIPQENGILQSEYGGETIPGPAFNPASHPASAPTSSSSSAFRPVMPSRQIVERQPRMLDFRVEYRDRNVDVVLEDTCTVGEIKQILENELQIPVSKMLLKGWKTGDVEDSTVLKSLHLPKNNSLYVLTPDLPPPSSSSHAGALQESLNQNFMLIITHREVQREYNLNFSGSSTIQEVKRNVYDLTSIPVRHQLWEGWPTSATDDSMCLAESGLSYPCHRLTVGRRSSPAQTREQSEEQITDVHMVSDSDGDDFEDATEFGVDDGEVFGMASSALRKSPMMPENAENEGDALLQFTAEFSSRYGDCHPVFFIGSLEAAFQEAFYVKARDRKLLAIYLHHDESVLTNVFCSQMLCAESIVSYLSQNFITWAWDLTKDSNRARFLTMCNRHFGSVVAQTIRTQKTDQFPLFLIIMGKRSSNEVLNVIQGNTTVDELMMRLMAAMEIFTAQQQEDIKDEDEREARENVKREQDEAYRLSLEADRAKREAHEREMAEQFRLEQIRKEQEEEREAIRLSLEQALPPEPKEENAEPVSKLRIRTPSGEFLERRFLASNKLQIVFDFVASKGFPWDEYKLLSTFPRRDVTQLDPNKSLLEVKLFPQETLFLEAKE
# In short: as §1
# GGA2 = biological target: T3, GGA2 (UniProt Q9UJY4)
# T3 sequence (whole entry): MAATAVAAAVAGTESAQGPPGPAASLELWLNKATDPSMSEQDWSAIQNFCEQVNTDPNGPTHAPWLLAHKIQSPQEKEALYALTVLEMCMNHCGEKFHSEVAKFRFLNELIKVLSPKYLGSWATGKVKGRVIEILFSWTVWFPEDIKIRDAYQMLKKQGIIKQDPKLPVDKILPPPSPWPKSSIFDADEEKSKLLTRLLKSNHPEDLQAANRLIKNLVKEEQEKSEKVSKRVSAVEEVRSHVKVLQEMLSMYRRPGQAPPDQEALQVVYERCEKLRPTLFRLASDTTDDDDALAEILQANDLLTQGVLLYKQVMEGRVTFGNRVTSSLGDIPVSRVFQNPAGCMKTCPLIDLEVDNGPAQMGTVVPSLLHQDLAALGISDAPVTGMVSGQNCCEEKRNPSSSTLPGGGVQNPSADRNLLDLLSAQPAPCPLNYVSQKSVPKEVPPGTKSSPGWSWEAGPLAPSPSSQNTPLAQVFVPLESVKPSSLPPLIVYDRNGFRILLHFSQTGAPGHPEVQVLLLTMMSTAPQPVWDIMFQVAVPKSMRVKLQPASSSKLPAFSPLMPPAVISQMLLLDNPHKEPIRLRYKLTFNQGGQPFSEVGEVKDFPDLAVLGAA
# In short: as §1
# GGT7 = biological target: T4, GGT7 (UniProt Q9UJ14)
# T4 sequence (whole entry): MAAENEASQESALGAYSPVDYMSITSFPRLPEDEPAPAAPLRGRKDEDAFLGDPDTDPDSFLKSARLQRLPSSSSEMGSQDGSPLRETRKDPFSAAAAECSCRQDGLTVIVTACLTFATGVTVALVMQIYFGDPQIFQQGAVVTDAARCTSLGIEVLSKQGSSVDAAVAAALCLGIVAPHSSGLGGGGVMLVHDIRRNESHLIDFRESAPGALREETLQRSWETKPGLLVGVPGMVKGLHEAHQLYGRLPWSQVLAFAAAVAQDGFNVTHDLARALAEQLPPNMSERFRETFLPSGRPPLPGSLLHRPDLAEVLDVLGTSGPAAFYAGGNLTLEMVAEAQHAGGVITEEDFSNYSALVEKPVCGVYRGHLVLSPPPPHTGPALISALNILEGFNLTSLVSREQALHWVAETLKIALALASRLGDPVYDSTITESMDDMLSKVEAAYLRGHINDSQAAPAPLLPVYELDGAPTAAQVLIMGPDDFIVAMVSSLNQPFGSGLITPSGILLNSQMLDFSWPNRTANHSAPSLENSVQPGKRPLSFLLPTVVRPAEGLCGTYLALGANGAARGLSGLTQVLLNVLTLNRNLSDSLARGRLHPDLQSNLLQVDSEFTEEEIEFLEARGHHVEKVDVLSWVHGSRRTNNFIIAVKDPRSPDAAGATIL
# In short: as §1
# PCYOX1 = biological target: T5, PCYOX1 (UniProt Q9UHG3)
# T5 sequence (whole entry): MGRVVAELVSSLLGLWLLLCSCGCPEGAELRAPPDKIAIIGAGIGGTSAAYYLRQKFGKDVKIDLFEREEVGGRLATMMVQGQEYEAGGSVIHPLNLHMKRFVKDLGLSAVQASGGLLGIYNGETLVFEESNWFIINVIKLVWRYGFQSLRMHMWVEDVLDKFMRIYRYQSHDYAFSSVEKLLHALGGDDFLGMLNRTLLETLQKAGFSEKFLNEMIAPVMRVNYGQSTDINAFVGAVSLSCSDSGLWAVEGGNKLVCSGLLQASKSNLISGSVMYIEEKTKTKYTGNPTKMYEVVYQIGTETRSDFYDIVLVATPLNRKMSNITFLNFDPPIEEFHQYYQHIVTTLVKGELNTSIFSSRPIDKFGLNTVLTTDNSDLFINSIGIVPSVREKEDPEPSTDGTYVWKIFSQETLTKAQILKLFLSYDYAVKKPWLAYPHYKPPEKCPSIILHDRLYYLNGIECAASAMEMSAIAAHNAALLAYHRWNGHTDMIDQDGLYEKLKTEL
# In short: as §1
# PLCL2 = biological target: T6, PLCL2 (UniProt Q9UPR0)
# T6 sequence (whole entry): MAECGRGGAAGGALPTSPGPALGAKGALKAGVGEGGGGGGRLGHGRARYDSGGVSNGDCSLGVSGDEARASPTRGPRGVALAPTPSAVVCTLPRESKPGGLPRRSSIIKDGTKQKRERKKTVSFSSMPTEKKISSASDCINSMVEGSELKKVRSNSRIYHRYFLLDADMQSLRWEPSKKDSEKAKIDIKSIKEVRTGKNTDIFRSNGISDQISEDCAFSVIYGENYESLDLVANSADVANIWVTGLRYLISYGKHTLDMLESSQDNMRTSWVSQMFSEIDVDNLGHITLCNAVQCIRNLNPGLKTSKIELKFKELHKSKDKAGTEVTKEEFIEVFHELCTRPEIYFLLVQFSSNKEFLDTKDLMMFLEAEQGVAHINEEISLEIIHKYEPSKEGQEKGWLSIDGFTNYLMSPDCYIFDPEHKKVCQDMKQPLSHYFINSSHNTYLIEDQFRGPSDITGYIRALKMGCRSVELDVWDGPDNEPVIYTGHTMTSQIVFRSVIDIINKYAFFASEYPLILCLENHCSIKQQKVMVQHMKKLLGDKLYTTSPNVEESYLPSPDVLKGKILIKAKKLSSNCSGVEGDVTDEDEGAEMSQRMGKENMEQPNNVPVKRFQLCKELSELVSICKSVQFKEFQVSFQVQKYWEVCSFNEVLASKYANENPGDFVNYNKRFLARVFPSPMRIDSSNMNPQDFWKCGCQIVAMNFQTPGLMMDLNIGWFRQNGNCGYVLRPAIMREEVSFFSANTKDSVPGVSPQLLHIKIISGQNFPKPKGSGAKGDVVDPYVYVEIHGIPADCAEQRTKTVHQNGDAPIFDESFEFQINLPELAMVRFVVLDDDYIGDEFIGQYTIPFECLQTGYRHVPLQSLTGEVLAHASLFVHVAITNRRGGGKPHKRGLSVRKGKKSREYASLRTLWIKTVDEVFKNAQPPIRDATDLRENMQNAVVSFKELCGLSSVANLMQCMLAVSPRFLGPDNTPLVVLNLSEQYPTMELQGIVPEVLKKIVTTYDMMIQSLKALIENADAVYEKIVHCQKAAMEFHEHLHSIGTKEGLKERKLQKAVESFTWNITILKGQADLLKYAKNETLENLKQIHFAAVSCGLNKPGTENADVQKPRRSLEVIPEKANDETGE
# In short: as §1
# POLG2 = biological target: T7, POLG2 (UniProt Q9UHN1)
# T7 sequence (whole entry): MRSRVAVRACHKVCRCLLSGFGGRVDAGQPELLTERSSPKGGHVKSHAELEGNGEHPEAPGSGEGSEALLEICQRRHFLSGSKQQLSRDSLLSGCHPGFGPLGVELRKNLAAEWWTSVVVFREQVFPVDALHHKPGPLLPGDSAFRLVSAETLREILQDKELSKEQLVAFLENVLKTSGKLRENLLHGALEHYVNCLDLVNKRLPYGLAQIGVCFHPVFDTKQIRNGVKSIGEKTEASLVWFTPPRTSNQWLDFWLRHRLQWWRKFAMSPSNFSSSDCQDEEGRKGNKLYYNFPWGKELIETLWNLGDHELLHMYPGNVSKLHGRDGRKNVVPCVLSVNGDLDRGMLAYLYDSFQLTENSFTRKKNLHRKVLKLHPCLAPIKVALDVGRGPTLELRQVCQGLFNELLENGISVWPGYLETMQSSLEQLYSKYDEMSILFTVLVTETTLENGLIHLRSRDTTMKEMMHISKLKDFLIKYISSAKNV
# In short: as §1
smiles,measurement,setting,value
Nc1ncnc2c1ncn2[C@@H]1O[C@H](COP(=O)(O)OP(=O)(O)OP(=O)(O)O)[C@@H](O)[C@H]1O [adenosine triphosphate],NP40-soluble protein abundance,ATXN10; concentration: 1mM,0.9501 ± 0.0036
same,NP40-soluble protein abundance,ATXN10; concentration: 2mM,0.959 ± 0.031
same,NP40-soluble protein abundance,ATXN10; concentration: 4mM,0.927 ± 0.015
same,NP40-soluble protein abundance,ATXN10; concentration: 6mM,0.933 ± 0.045
same,NP40-soluble protein abundance,ATXN10; concentration: 8mM,0.915 ± 0.025
same,NP40-soluble protein abundance,ATXN10; concentration: 10mM,0.913 ± 0.032
same,NP40-soluble protein abundance,FAF1; concentration: 1mM,0.988 ± 0.038
same,NP40-soluble protein abundance,FAF1; concentration: 2mM,0.993 ± 0.037
same,NP40-soluble protein abundance,FAF1; concentration: 4mM,0.972 ± 0.036
same,NP40-soluble protein abundance,FAF1; concentration: 6mM,0.966 ± 0.047
same,NP40-soluble protein abundance,FAF1; concentration: 8mM,0.958 ± 0.039
same,NP40-soluble protein abundance,FAF1; concentration: 10mM,0.975 ± 0.049
same,NP40-soluble protein abundance,GGA2; concentration: 1mM,0.952 ± 0.038
same,NP40-soluble protein abundance,GGA2; concentration: 2mM,0.968 ± 0.057
same,NP40-soluble protein abundance,GGA2; concentration: 4mM,0.991 ± 0.046
same,NP40-soluble protein abundance,GGA2; concentration: 6mM,0.975 ± 0.016
same,NP40-soluble protein abundance,GGA2; concentration: 8mM,0.932 ± 0.02
same,NP40-soluble protein abundance,GGA2; concentration: 10mM,0.961 ± 0.025
same,NP40-soluble protein abundance,GGT7; concentration: 1mM,0.977 ± 0.053
same,NP40-soluble protein abundance,GGT7; concentration: 2mM,0.973 ± 0.09
same,NP40-soluble protein abundance,GGT7; concentration: 4mM,1.01 ± 0.17
same,NP40-soluble protein abundance,GGT7; concentration: 6mM,0.928 ± 0.057
same,NP40-soluble protein abundance,GGT7; concentration: 8mM,0.871 ± 0.069
same,NP40-soluble protein abundance,GGT7; concentration: 10mM,0.938 ± 0.023
same,NP40-soluble protein abundance,PCYOX1; concentration: 1mM,1 ± 0.12
same,NP40-soluble protein abundance,PCYOX1; concentration: 2mM,1.01 ± 0.1
same,NP40-soluble protein abundance,PCYOX1; concentration: 4mM,0.99 ± 0.077
same,NP40-soluble protein abundance,PCYOX1; concentration: 6mM,0.916 ± 0.12
same,NP40-soluble protein abundance,PCYOX1; concentration: 8mM,0.98 ± 0.034
same,NP40-soluble protein abundance,PCYOX1; concentration: 10mM,0.971 ± 0.059
same,NP40-soluble protein abundance,PLCL2; concentration: 1mM,0.95 ± 0.088
same,NP40-soluble protein abundance,PLCL2; concentration: 2mM,0.964 ± 0.037
same,NP40-soluble protein abundance,PLCL2; concentration: 4mM,0.972 ± 0.035
same,NP40-soluble protein abundance,PLCL2; concentration: 6mM,0.946 ± 0.052
same,NP40-soluble protein abundance,PLCL2; concentration: 8mM,0.963 ± 0.058
same,NP40-soluble protein abundance,PLCL2; concentration: 10mM,0.9853 ± 0.0089
same,NP40-soluble protein abundance,POLG2; concentration: 1mM,1.05 ± 0.1
same,NP40-soluble protein abundance,POLG2; concentration: 2mM,0.98 ± 0.025
same,NP40-soluble protein abundance,POLG2; concentration: 4mM,0.969 ± 0.031
same,NP40-soluble protein abundance,POLG2; concentration: 6mM,0.931 ± 0.067
same,NP40-soluble protein abundance,POLG2; concentration: 8mM,0.9842 ± 0.006
same,NP40-soluble protein abundance,POLG2; concentration: 10mM,0.993 ± 0.062

# Some of the entries so far, bar-delimited.
smiles | measurement | setting | value
Nc1ncnc2c1ncn2[C@@H]1O[C@H](COP(=O)(O)OP(=O)(O)OP(=O)(O)O)[C@@H](O)[C@H]1O [adenosine triphosphate] | NP40-soluble protein abundance | GGT7; concentration: 2mM | 0.973 ± 0.09
same | NP40-soluble protein abundance | PLCL2; concentration: 8mM | 0.963 ± 0.058
